# Measured values reported in the supplement of paper PMC3334620.
# In all, about 33,000 sequences were measured (“E-score (-0.5 to 0.5)”: median about -0.0034, highest 2% from about 0.25 on). This is one part of the list.
# Target: T1, Yap3 (UniProt P38749)
# T1 sequence: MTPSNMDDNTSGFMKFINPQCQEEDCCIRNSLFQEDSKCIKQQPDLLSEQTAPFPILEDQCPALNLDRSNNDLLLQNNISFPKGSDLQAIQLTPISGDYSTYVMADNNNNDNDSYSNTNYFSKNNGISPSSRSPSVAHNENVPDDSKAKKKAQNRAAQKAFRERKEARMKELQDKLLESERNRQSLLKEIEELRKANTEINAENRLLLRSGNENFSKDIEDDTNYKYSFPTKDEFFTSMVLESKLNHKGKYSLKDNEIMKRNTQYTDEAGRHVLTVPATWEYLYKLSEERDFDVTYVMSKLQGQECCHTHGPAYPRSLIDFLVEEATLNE
# Experiment: PBM E-score (8-mer binding enrichment) (E-score (-0.5 to 0.5)); higher = stronger / more preferred TF binding
# Conditions: protein concentration: 100 nM; construct: GST-full length
# Method: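 Universal 'all 10-mer' protein binding microarrays (Agilent AMADID 015681) probed with GST-tagged S. cerevisiae TFs (full-length or DBD) made by in vitro transcription/translation (PURExpress), about 100-200 nM. Bound TF was detected with fluorescent anti-GST. Each ungapped 8-mer (which stands for itself and its reverse complement) is scored by the PBM enrichment score (E-score), a modified Wilcoxon-Mann-Whitney statistic from -0.5 to +0.5, computed with the Universal PBM Analysis Suite. Scale: above 0.35 generally sequence-specific binding.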
row,Sequence,PBM E-score
1,CGTGCGTC,0.128
2,CAAGGCTG,-0.118
3,GGCAGTCA,-0.11
4,ACTGTGGC,-0.231
5,ACGCGTGA,0.125
6,AGCTGTCA,-0.0724
7,AACGGCTC,0.104
8,CAGAAACC,0.0742
9,CACAGGGA,-0.149
10,CGTTCGGA,0.133
11,AACGCCCA,0.0574
12,CGCCTTAG,-0.0973
13,CTCCACTC,-0.303
14,GAGTTCGC,-0.0914
15,CAATCTAA,0.0501
16,AGTGTATA,-0.0181
17,GCTAGTAA,0.0522
18,ACTCCAGG,-0.0934
19,AAACTACT,0.193
20,GACCGGTA,-0.33
21,AGGTTCAC,-0.0757
22,CGCGTGAG,0.046
23,AGCGAGCT,0.0546
24,CACAGGCA,0.0714
25,GAGGAGCC,-0.275

row,Sequence,PBM E-score
1,CCTAGCCC,-0.213
2,AAAGATGT,0.0237
3,CGTTGATC,0.0509
4,ATATCGCG,0.251
5,AACGGAGA,0.133
6,ACTTTAGA,-0.0113
7,AAACACCG,0.0566
8,ACGATAGC,-0.0134
9,AGCGACGC,-0.117
10,ACTTCACG,0.0216
11,GGGGCTTA,-0.228
12,AGGGACAC,0.147
13,CAGTCTGC,-0.0875
14,CACAGATA,-0.105
15,ACGCATTC,0.0461
16,AATTCCGC,0.15
17,AAAAGCAT,0.125
18,GGACCATA,-0.138
19,ATGACCAC,0.121
20,GATTCAAC,0.0463
21,GTGCGGAA,0.0764
22,CGTGCAAG,-0.102
23,CATATCCG,0.169
24,GAATCCAC,0.0717
25,AGGTAAAC,0.0545

row,Sequence,PBM E-score
1,AGCTCTAT,0.0447
2,CTCCGTCC,-0.316
3,AGCACCAT,-0.267
4,ATATAGCG,0.0882
5,CAACGTGC,0.0377
6,GTACGACA,0.163
7,GGTTATTA,0.158
8,ATCACCCA,-0.0559
9,GGAATCCC,-0.106
10,ACCTATTG,-0.0239
11,GACAGCGA,-0.201
12,CTTAATTC,0.183
13,GGATCACC,-0.0859
14,CCGTGGCA,-0.125
15,CGCTTAGC,-0.0814
16,ACGAATAT,0.212
17,GCGGCTCC,-0.272
18,AGCACCCG,-0.0751
19,GCACGAGA,-0.0452
20,GCCGGTTA,-0.103
21,CCGCGATA,0.0701
22,CATTTTAA,0.219
23,AGCTCCAG,-0.12
24,AATAATCA,0.11
25,CCATCGGC,-0.117

row,Sequence,PBM E-score
1,CTCTTCAC,0.0352
2,GCTTTTGA,-0.0979
3,CATCATGG,-0.00375
4,CAATTAGA,0.0631
5,CACGTGAC,0.00807
6,CAACCAGG,-0.139
7,ACTGGGAA,0.102
8,GAAGTATC,0.116
9,ACGTGAGT,-0.0251
10,AAGTTATG,0.256
11,ATCTACGA,-0.203
12,ACCTATAT,0.204
13,TACGACCA,-0.00899
14,AGAGCACA,0.0746
15,AATCGCTC,-0.104
16,CCGGTAGA,-0.0819
17,ACTCGGAT,0.0525
18,GGTTTATA,0.0813
19,GATCGTCA,-0.0725
20,AAGAGCAG,-0.065
21,ACCACTGC,-0.048
22,AGGACGCA,-0.0726
23,CCCCGCGG,-0.125
24,GGTCGCTA,-0.248
25,AAGCTATG,-0.152

row,Sequence,PBM E-score
1,GCACAACA,0.151
2,TCGCTCCA,-0.123
3,CCGGTGTC,-0.108
4,ACAGCGTG,-0.0549
5,ACTTGGTG,-0.121
6,AGAGAACT,-0.0225
7,CGCACGAA,0.0256
8,AGCCCGAA,-0.15
9,CAAGTCGA,-0.00174
10,GACTTCAA,-0.118
11,CCAAAGAC,-0.00049
12,AAGCGTAG,-0.137
13,AATGAGAT,0.266
14,ATAACCAG,0.157
15,ATCGCCAG,-0.0382
16,CGTGTTTC,-0.0543
17,TCGCCGAA,0.0659
18,GTAGATAA,0.245
19,ATATCAGA,0.138
20,TCCTCCGA,-0.1
21,ATTCTCTA,0.162
22,CCAGATGC,-0.125
23,GACGCCCC,-0.263
24,TAAGTCCA,0.00179
25,ACACAAGT,0.0806

row,Sequence,PBM E-score
1,CCACACAG,-0.0391
2,ATACATAA,0.285
3,GCCATATA,0.164
4,CGCAAGAC,-0.0889
5,AGGAGACG,-0.195
6,GCGGGATA,-0.0795
7,CCTGTACA,-0.126
8,ACGGAGGG,-0.139
9,AGCATGGC,-0.156
10,CATGTGCA,-0.275
11,AGTTACCA,0.111
12,CCAATTCA,0.197
13,CTTAAGTA,0.131
14,GGTAAATA,0.111
15,GTTACGTA,0.182
16,CATAGAAA,0.268
17,ATGCAGGA,-0.0704
18,GCTAGACC,-0.343
19,CAGCGACG,-0.0734
20,AGCTCCCT,-0.169
21,GCTCTGGA,0.15
22,AGCGATCC,-0.123
23,AACGATGT,0.12
24,CAGGCATG,-0.0522
25,CCTCGGAG,-0.0429

# In a second layout: results already given
row | Sequence | PBM E-score
7 | CCTGTACA | -0.126
8 | ACGGAGGG | -0.139
9 | AGCATGGC | -0.156
10 | CATGTGCA | -0.275

# The listing continues.

row,Sequence,PBM E-score
1,AGCCAGAA,-0.0109
2,TCAAGGCA,-0.115
3,GCAATGGC,-0.121
4,AGACAGTC,-0.238
5,AACTGAAG,0.0554
6,CCAGGAAC,-0.209
7,ATGCGGGG,-0.197
8,CTCATTTA,0.133
9,CAATATTC,0.126
10,AACGGATT,0.233
11,CAGGATAA,0.173
12,AGGTCCAA,-0.204
13,AGCAATCC,-0.213
14,ACCGATAG,0.00043
15,CCGGACCG,-0.254
16,TACAAAGA,0.139
17,GCTTGAAC,0.17
18,CATCAGAG,-0.0207
19,CCGGCGGA,-0.0725
20,TACTGTGA,0.23
21,CTCGGGAC,-0.156
22,ACGGTGCA,-0.116
